Measurements published in paper PMC8315796.
These are yes or no findings as the source states them, for the method shown. Binding seen in cells or lysates may run through a third protein. Some results given as binding are weak or reduced against the parent protein; the word gives no strength. For some assays here: Tags and fused reporters may be left off the sequences shown.

Sequences of proteins named here, by UniProt entry; tags and fusion partners are left off.
UniProt Q16665: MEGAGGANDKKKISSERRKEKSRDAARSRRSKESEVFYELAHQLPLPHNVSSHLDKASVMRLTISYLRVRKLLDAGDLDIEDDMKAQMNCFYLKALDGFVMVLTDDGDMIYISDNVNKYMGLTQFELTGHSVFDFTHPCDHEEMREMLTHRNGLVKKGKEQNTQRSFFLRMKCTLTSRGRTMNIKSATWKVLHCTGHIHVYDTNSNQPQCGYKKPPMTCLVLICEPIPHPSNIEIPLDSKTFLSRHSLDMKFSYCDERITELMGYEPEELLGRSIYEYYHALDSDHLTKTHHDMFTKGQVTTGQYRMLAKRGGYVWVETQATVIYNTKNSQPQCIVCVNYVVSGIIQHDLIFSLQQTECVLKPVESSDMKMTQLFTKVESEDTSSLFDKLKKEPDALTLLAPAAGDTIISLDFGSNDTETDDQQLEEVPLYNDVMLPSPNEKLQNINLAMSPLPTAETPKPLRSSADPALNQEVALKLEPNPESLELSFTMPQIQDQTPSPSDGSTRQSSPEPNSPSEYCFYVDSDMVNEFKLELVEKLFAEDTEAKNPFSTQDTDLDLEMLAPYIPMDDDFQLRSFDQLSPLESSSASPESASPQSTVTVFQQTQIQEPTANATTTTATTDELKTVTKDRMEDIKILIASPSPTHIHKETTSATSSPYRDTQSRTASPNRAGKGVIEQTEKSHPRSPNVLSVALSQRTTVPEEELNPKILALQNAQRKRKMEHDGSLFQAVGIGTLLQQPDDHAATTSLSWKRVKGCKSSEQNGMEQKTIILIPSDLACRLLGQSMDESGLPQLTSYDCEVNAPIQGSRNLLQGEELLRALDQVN

Legend:
[1] = target: T1, KSHV-encoded vCyclin (Kaposi's sarcoma associated herpesvirus (KSHV)) (UniProt Q77Q36); experiment: co-IP; lysates of naturally infected KSHV-positive BC3, BCBL1 and JSC1 cells; immunoprecipitation with vCyclin antibodies, blot for HIF1α; KSHV-negative BJAB cells as negative control
T1 sequence: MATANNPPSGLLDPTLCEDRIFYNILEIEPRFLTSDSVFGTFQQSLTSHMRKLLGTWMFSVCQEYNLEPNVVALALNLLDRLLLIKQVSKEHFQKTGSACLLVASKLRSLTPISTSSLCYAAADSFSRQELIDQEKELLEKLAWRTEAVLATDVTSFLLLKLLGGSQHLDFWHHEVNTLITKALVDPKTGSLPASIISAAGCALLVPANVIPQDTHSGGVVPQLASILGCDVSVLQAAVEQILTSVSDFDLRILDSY

[2] = target: T2, GFP-tagged KSHV-encoded vCyclin (Kaposi's sarcoma associated herpesvirus (KSHV)) (UniProt Q77Q36); experiment: co-IP; HEK293T cells transfected with GFP-vCyclin, lysed in RIPA buffer, pre-cleared with protein A/G agarose beads; overnight immunoprecipitation with GFP antibody; blot probed with HIF1α or GFP antibodies against 5% input or IgG control
T2 sequence: T1 sequence

HIF1α (from UniProt Q16665 1-826) was tested, and the binding [1] was “binds” and the binding [2] was “binds”.
